This note sets out measurements from the supplement of paper PMC4749390.

Where a name gives a salt, the structure may show the parent alone. The list shows a part of the results. Single values are uncertain here, since repeats match poorly.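 Wild-type human LRH-1, a heavily sumoylated nuclear receptor, is tetracycline-inducible in stable JEG3 cells. RT-qPCR measured SUMO-sensitive APOC3 and MUC1 transcripts, which rise with SUMO-less LRH-1 or UBC9 knockdown, versus TBP and DMSO controls. Robust Z-scores beyond ±2 flagged primary hits, followed by toxicity and TBP filtering.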

In this assay the test system is JEG3 expressing hLRH-1. The assay can be described thus: MUC1 transcript change (ddCt vs TBP and DMSO), Z-score over library; higher = higher MUC1 expression. The note with it: 10 µM; time (hr): 24.
With `CCn1cc(C(=O)O)c(=O)c2cc(F)c(N3CCNC(C)C3)c(F)c21` (stereo not drawn) [lomefloxacin hydrochloride], the “MUC1 transcript change (Z-score)” value was 0.497.
Consider `Nc1ccc(S(=O)(=O)Nc2ccccn2)cc1` [sulfapyridine], for which the “MUC1 transcript change (Z-score)” value was -0.0553.
For `CCC(=O)OCC(=O)[C@@]1(OC(=O)CC)[C@@H](C)CC2C3CCC4=CC(=O)C=C[C@]4(C)C3(F)[C@@H](O)C[C@@]21C` (stereo partly drawn) [betamethasone 17,21-dipropionate], the “MUC1 transcript change (Z-score)” value was determined as 0.0348.
With `C=C1c2cccc(O)c2C(O)=C2C(=O)[C@]3(O)C(O)=C(C(N)=O)C(=O)[C@@H](N(C)C)[C@@H]3[C@@H](O)[C@H]12` [methacycline hydrochloride], the “MUC1 transcript change (Z-score)” value was 0.292.
The result for `CC(C(=O)O)c1cccc(C(=O)c2ccccc2)c1` (stereo not drawn) [ketoprofen] reads 2.53.
As for `CCOc1ccccc1OCCNC(C)Cc1ccc(OC)c(S(N)(=O)=O)c1` (stereo not drawn) [tamsulosin hydrchloride], the “MUC1 transcript change (Z-score)” value came out at 0.592.
To `Nc1ccc(S(=O)(=O)Nc2ncccn2)cc1` [sulfadiazine] belongs 0.129; to `CC1=NS(=O)(=O)c2cc(Cl)ccc2N1` [Diazoxide], 0.228.
To `Cn1nnnc1SCC1=C(C(=O)O)N2C(=O)C(NC(=O)C(O)c3ccccc3)C2SC1` (stereo not drawn) [cefamandole sodium] belongs 0.999; to `CCN(CC)CCOC(=O)C(Cc1cccc2ccccc12)CC1CCCO1` (stereo not drawn) [nafronyl oxalate], 0.231.
As for `Nc1cc(N2CCCCC2)nc(N)[n+]1[O-]` [Minoxidil], the “MUC1 transcript change (Z-score)” value worked out at 0.338.
To `CC1(C)C2CCC1(CS(=O)(=O)O)C(=O)/C2=C\c1ccc(/C=C2\C(=O)C3(CS(=O)(=O)O)CCC2C3(C)C)cc1` [ecamsule triethanolamine] belongs -0.732; to `Cc1ccc(S(=O)(=O)NC(=O)NN2CCCCCC2)cc1` [Tolazamide], -0.254; to `CN1C(CCl)Nc2cc(Cl)c(S(N)(=O)=O)cc2S1(=O)=O` (stereo not drawn) [methyclothiazide], 0.157.
In the case of `CC(=O)N(CC(O)CO)c1c(I)c(C(=O)NCCO)c(I)c(C(=O)NCC(O)CO)c1I` (stereo not drawn) [ioxilan], the “MUC1 transcript change (Z-score)” value is -0.0877.
On to `CC(C(=O)O)c1ccc2c(c1)Cc1cccnc1O2` (stereo not drawn) [pranoprofen], for which the “MUC1 transcript change (Z-score)” value amounted to 1.16.
The result for `COC(=O)Nc1nc2cc(Sc3ccccc3)ccc2[nH]1` [fenbendazole] reads -0.351; that for `CCCCC(CC)COC(=O)CC(C(=O)OCC(CC)CCCC)S(=O)(=O)O` (stereo not drawn) [docusate sodium], -0.287.
The result for `COC(=O)[C@H]1[C@H]2C[C@@H]3c4[nH]c5cc(OC)ccc5c4CCN3C[C@H]2C[C@@H](OC(=O)c2cc(OC)c(OC)c(OC)c2)[C@@H]1OC` [reserpine] reads 0.00861; that for `O=C(OOC(=O)c1ccccc1)c1ccccc1` [benzoyl peroxide], 0.649; that for `CC[C@H]1OC(=O)[C@H](C)[C@@H](O[C@H]2C[C@@](C)(OC)[C@@H](O)[C@H](C)O2)[C@H](C)[C@@H](O[C@@H]2O[C@H](C)C[C@H](N(C)C)[C@H]2O)[C@](C)(O)C[C@@H](C)/C(=N\OCOCCOC)[C@H](C)[C@@H](O)[C@]1(C)O` [roxithromycin], 0.396.
Take `CC[C@H](C)[C@H](N)C(=O)O` [isoleucine (l)]: the “MUC1 transcript change (Z-score)” value was -0.621.
The result for `C[C@@](Cc1ccc(O)c(O)c1)(NN)C(=O)O` [S-(-)-Carbidopa] reads -0.125.
With `O=C(O)CCNC(=O)c1ccccc1` [betamipron], the “MUC1 transcript change (Z-score)” value is 0.734.
The result for `C/C(=C(/CCOP(=O)(O)O)SC(=O)c1ccccc1)N(C=O)Cc1cnc(C)nc1N` (stereo in doubt) [benfotiamine] reads 0.64; that for `Oc1c(Cl)cc(Cl)c2cccnc12` [chloroxine], 3.37; that for `OCC(O)[C@@H](O)CO` (stereo partly drawn) [erythritol], 0.399.
With `CC(C)OC(=O)C(C)(C)Oc1ccc(C(=O)c2ccc(Cl)cc2)cc1` [fenofibrate], the “MUC1 transcript change (Z-score)” value is -2.32.
As for `N=C(NCCCCCCNC(=N)NC(=N)Nc1ccc(Cl)cc1)NC(=N)Nc1ccc(Cl)cc1` [chlorhexidine], the “MUC1 transcript change (Z-score)” value was -1.36.
The result for `CN(C)CCOC(c1ccccc1)c1ccccc1.Cn1c(=O)c2[nH]c(Cl)nc2n(C)c1=O` [dimenhydrinate] reads -0.444; that for `COC(=O)[C@H](Cc1ccccc1)NC(=O)[C@@H](N)CC(=O)O` [aspartame], -0.77.
To `CO/N=C(\C(=O)N[C@@H]1C(=O)N2C(C(=O)O)=C(COC(C)=O)CS[C@H]12)c1csc(N)n1` [cefotaxime sodium] belongs 0.851; to `CCCCCCCCCCCCCCCC(=O)OC/C=C(C)/C=C/C=C(C)/C=C/C1=C(C)CCCC1(C)C` [retinyl palmitate], 0.716.
The result for `CC(=O)Nc1c(I)cc(I)c(C(=O)O)c1I` [acetriazoic acid] reads 0.772; that for `C=COCC(F)(F)F` [fluroxene], 0.442.
With `COc1cc(C(=O)N2CCOCC2)cc(OC)c1OC` [trimetozine], the “MUC1 transcript change (Z-score)” value stood at 1.37.
`O=NN(CCCl)C(=O)NC1CCCCC1` [lomustine]: the “MUC1 transcript change (Z-score)” value was -0.568.
For the molecule `CC(C)(C)NC[C@H](O)COc1ccccc1C1CCCC1` [penbutolol sulfate], the “MUC1 transcript change (Z-score)” value worked out at 0.802.
The result for `CCN(CC)CCNC(=O)c1ccc(N)cc1` [Procainamide hydrochloride] reads 0.341.
Regarding `NC[C@H](O)c1ccc(O)c(O)c1` [norepinephrine], the “MUC1 transcript change (Z-score)” value is -0.27.
Consider `CC(C)Cc1ccc([C@H](C)C(=O)O)cc1` [dexibuprofen], for which the “MUC1 transcript change (Z-score)” value was -0.0511.
Consider `O=C(O)C1=C(CSc2nnnn2CS(=O)(=O)O)CS[C@@H]2[C@H](NC(=O)[C@H](O)c3ccccc3)C(=O)N12` [cefonicid sodium], for which the “MUC1 transcript change (Z-score)” value was -0.885.
With `CN(C)CCN(Cc1ccc(Cl)cc1)c1ccccn1` [chloropyramine hydrochloride], the “MUC1 transcript change (Z-score)” value is -0.366.
The result for `CN[C@@H]1[C@@H](O[C@H]2O[C@H](CO)[C@@H](N)[C@H](O)[C@H]2O)O[C@H]2C[C@@H](N)[C@H](O[C@H]3[C@H](O)[C@@H](O)[C@H](N)C[C@@H]3N)O[C@@H]2[C@@H]1O` [apramycin sulfate] reads 0.0392.
Turning to `Nc1nc(O)c2ncn(COCCO)c2n1` [Acyclovir], the “MUC1 transcript change (Z-score)” value is 1.32.
To `CC(=O)Nc1ccc(S(=O)(=O)c2ccc(NC(C)=O)cc2)cc1` [acedapsone] belongs -0.291; to `CCOC(=O)[C@H](CCc1ccccc1)N[C@H]1CCc2ccccc2N(CC(=O)O)C1=O` [benazepril hydrochloride], 0.821.
On to `O=C(Oc1cccc2cccnc12)c1ccccc1` [benzoxiquine], for which the “MUC1 transcript change (Z-score)” value turned out to be 0.857.
In the case of `O=C(O)P(=O)(O)O` [foscarnet sodium], the “MUC1 transcript change (Z-score)” value amounted to 0.414.
To `CC(C)(CO)C(O)C(=O)NCCC(=O)NCCSSCCNC(=O)CCNC(=O)C(O)C(C)(C)CO` (stereo not drawn) [pantethine] belongs -0.62.
`CC(C)[N+]1(C)C2CC[C@H]1C[C@@H](OC(=O)C(CO)c1ccccc1)C2` (stereo partly drawn) [ipratropium bromide]: the “MUC1 transcript change (Z-score)” value is -0.427.
The result for `CC1Cc2ccccc2N1NC(=O)c1ccc(Cl)c(S(N)(=O)=O)c1` (stereo not drawn) [indapamide] reads 0.928; that for `CCOC(=O)Nc1nc2ccccc2[nH]1` [lobendazole], 0.756; that for `N#CC(c1ccc(Cl)cc1)c1c(Cl)cc(-n2ncc(=O)[nH]c2=O)cc1Cl` (stereo not drawn) [diclazuril], 1.69.
To `OCc1ccccc1O[C@@H]1O[C@H](CO)[C@@H](O)[C@H](O)[C@H]1O` [salicin] belongs -4.23.
To `N[C@H]1CONC1=O` [levcycloserine] belongs 0.567.
`CC(=O)Nc1ccc(OC(=O)c2ccccc2O)cc1` [acetaminosalol]: the “MUC1 transcript change (Z-score)” value is -0.85.
Consider `CC(C)(CO)[C@@H](O)C(=O)NCCC(=O)O` [pantothenic acid(d) na salt], for which the “MUC1 transcript change (Z-score)” value came out at 0.783.
To `CC(Cc1cccc(C(F)(F)F)c1)NCCOC(=O)c1ccccc1` (stereo not drawn) [benfluorex hydrochloride] belongs 1.08; to `CC1CCC(NC(=O)N(CCCl)N=O)CC1` (stereo not drawn) [semustine], 0.0218; to `CC(C)CC(NC(=O)C(C)NC(=O)CNC(=O)C(NC=O)C(C)C)C(=O)NC(C)C(=O)NC(C(=O)NC(C(=O)NC(C(=O)NC(Cc1c[nH]c2ccccc12)C(=O)NC(CC(C)C)C(=O)NC(Cc1c[nH]c2ccccc12)C(=O)NC(CC(C)C)C(=O)NC(Cc1c[nH]c2ccccc12)C(=O)NC(CC(C)C)C(=O)NC(Cc1c[nH]c2ccccc12)C(=O)NCCO)C(C)C)C(C)C)C(C)C` (stereo not drawn) [gramicidin (gramicidin a shown)], -0.538.
To `CC#C[C@]1(O)CC[C@H]2[C@@H]3CCC4=CC(=O)CCC4=C3[C@@H](c3ccc(N(C)C)cc3)C[C@@]21C` [mifepristone] belongs -0.873.
As to `Cc1ccc(N(CC2=NCCN2)c2cccc(O)c2)cc1` [Phentolamine mesylate], the “MUC1 transcript change (Z-score)” value is 0.308.
For `CC(C)n1c(/C=C/[C@@H](O)C[C@@H](O)CC(=O)O)c(-c2ccc(F)cc2)c2ccccc21` [fluvastatin], the “MUC1 transcript change (Z-score)” value is -0.129.
On to `CC(CN(C)C)CN1c2ccccc2Sc2ccccc21` (stereo not drawn) [trimeprazine tartrate], for which the “MUC1 transcript change (Z-score)” value was -0.439.
In the case of `O=c1ccc2ccccc2o1` [coumarin], the “MUC1 transcript change (Z-score)” value was 0.892.
On to `CC(=O)Nc1c(I)c(NC(C)=O)c(I)c(C(=O)O)c1I` [diatrizoic acid], for which the “MUC1 transcript change (Z-score)” value was 0.368.
To `CC1(C)O[C@@H]2C[C@H]3[C@@H]4C[C@H](F)C5=CC(=O)C=C[C@]5(C)[C@@]4(F)[C@@H](O)C[C@]3(C)[C@]2(C(=O)CO)O1` [fluocinolone acetonide] belongs -0.0491; to `COc1cc(NS(=O)(=O)c2ccc(N)cc2)ncn1` [sulfamonomethoxine], 0.537; to `Cc1cc(C)nc(NS(=O)(=O)c2ccc(N)cc2)n1` [sulfamethazine], 0.316.
The result for `C[C@@H]1C/C=C/C=C/C=C/C=C/[C@H](O[C@@H]2O[C@H](C)[C@@H](O)[C@H](N)[C@@H]2O)C[C@@H]2O[C@](O)(C[C@@H](O)C[C@H]3O[C@@H]3/C=C/C(=O)O1)C[C@H](O)[C@H]2C(=O)O` [natamycin] reads 0.322.
Regarding `Cc1ncc([N+](=O)[O-])n1CC(C)O` (stereo not drawn) [secnidazole], the “MUC1 transcript change (Z-score)” value was 0.508.
The result for `CO/C(O)=C1/C(C)=NC(C)=C(C(=O)OCCN2CCN(C(c3ccccc3)c3ccccc3)CC2)C1c1cccc([N+](=O)[O-])c1` (stereo not drawn) [manidipine hydrochloride] reads 0.683.
